No constants are given. Whether binding was seen depends on the method and setting.
T1: RapF^D194A (B. subtilis) (UniProt P71002)
T1 sequence: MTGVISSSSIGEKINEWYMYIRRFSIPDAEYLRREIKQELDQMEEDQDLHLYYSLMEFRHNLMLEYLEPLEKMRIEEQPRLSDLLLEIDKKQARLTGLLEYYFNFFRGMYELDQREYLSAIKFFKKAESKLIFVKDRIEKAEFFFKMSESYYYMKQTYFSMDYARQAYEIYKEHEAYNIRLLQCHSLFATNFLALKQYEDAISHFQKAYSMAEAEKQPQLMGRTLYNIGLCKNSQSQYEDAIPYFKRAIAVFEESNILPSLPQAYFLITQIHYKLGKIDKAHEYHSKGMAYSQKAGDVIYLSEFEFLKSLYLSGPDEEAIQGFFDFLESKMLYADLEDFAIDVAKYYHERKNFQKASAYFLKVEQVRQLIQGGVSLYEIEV

T2: RapF^N227A (B. subtilis) (UniProt P71002)
T2 sequence: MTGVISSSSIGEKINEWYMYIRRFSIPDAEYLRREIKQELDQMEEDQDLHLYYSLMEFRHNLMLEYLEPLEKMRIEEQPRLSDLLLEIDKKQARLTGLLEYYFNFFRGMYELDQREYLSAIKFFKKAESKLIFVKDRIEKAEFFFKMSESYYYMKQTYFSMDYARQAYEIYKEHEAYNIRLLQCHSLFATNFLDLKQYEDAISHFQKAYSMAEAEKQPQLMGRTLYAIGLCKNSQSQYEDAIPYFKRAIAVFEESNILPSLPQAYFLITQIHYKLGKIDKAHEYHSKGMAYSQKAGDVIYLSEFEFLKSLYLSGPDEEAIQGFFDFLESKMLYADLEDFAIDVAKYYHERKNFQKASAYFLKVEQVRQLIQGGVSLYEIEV

T3: RapF^E303A (B. subtilis) (UniProt P71002)
T3 sequence: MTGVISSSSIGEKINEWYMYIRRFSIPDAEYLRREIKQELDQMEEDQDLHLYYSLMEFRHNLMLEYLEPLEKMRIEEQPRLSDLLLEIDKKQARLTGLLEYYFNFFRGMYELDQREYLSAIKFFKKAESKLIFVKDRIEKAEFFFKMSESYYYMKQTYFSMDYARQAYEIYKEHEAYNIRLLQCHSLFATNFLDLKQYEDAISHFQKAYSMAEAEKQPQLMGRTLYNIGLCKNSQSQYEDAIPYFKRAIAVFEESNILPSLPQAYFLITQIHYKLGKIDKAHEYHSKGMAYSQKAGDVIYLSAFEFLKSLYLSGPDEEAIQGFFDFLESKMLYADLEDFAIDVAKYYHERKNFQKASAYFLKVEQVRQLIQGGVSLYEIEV

B1: PhrF (peptide)
peptide: QRGMI
notes: mature active form of the PhrF precursor; The purchase from Genescript is stated for the crystallisation; no other source is named; also called PhrF peptide; source: bought: Genescript
B2: PhrC (peptide)
peptide: ERGMT
notes: mature active form of the PhrC precursor; also called PhrC peptide; RapC (PhrC) peptide

How the values were obtained:
RapF^D194A (B. subtilis) [1] = target: T1, RapF^D194A (B. subtilis); assay: thermal-shift assay (SYPRO Orange); 20 µM RapF, peptides 1 mM; 20 mM Tris-HCl pH 8, 100 mM NaCl; heated at 1°C/min; both purified
RapF^N227A (B. subtilis) [2] = target: T2, RapF^N227A (B. subtilis); assay: as above
RapF^D194A (B. subtilis) [3] = target: T1, RapF^D194A (B. subtilis); assay: native gel or EMSA; Native-PAGE, Coomassie stained; RapF (WT or mutant) and ComA 10 µM each, Phr peptides 0.5 mM; buffer A (200 mM NaCl, 50 mM Tris-HCl pH 8.0), room temperature, 30 min; both purified
RapF^N227A (B. subtilis) [4] = target: T2, RapF^N227A (B. subtilis); assay: as above
RapF^D194A (B. subtilis) [5] = target: T1, RapF^D194A (B. subtilis); assay: native gel or EMSA; titration on 8% native gel; 20 µg protein, peptide 50 nM to 1.2 mM in 20 µl buffer A, 15 min at room temperature; midpoint of the transition taken as the apparent Kd; both purified
RapF^N227A (B. subtilis) [6] = target: T2, RapF^N227A (B. subtilis); assay: as above
RapF^E303A (B. subtilis) [7] = target: T3, RapF^E303A (B. subtilis); assay: thermal-shift assay (SYPRO Orange); 20 µM RapF, peptides 1 mM; 20 mM Tris-HCl pH 8, 100 mM NaCl; heated at 1°C/min; both purified
RapF^E303A (B. subtilis) [8] = target: T3, RapF^E303A (B. subtilis); assay: native gel or EMSA; Native-PAGE, Coomassie stained; RapF (WT or mutant) and ComA 10 µM each, Phr peptides 0.5 mM; buffer A (200 mM NaCl, 50 mM Tris-HCl pH 8.0), room temperature, 30 min; both purified
RapF^E303A (B. subtilis) [9] = target: T3, RapF^E303A (B. subtilis); assay: native gel or EMSA; titration on 8% native gel; 20 µg protein, peptide 50 nM to 1.2 mM in 20 µl buffer A, 15 min at room temperature; midpoint of the transition taken as the apparent Kd; both purified

Row | Binder | binding (RapF^D194A (B. subtilis) [1]) | binding (RapF^N227A (B. subtilis) [2]) | binding (RapF^D194A (B. subtilis) [3]) | binding (RapF^N227A (B. subtilis) [4]) | binding (RapF^D194A (B. subtilis) [5]) | binding (RapF^N227A (B. subtilis) [6]) | binding (RapF^E303A (B. subtilis) [7]) | binding (RapF^E303A (B. subtilis) [8]) | binding (RapF^E303A (B. subtilis) [9])
1 | B1 | no binding (tested: 1 mM) | no binding (tested: 1 mM) | no binding (tested: 0.5 mM) | no binding (tested: 0.5 mM) | no binding (tested: 1.2 mM) | no binding (tested: 1.2 mM) | – | – | –
2 | B2 | no binding (tested: 1 mM) | no binding (tested: 1 mM) | – | – | – | – | no binding (tested: 1 mM) | no binding (tested: 0.5 mM) | no binding (tested: 0–1.2 mM)
